{"source": "patent US12482280B2", "about": "“Biological image transformation using machine-learning models” (Insitro, Inc., priority 2020, dated 2025)", "tested_on": "tissues with TSC", "test": "Evaluation of drug treatment in tuberous sclerosis (TSC) model using GAN-generated phase images", "format": "cell-based", "conditions": "TSC+Rapamycin vs TSC vs Wildtype", "note": "At least one structure is not confirmed: it was looked up by name or label, or the drawing left a doubt.", "data": [{"smiles": "CO[C@H]1C[C@@H]2CC[C@@H](C)[C@@](O)(O2)C(=O)C(=O)N2CCCC[C@H]2C(=O)O[C@H]([C@H](C)C[C@@H]2CC[C@@H](O)[C@H](OC)C2)CC(=O)[C@H](C)/C=C(\\C)[C@@H](O)[C@@H](OC)C(=O)[C@H](C)C[C@H](C)/C=C/C=C/C=C/1C", "note": "[Rapamycin]", "values": [{"measurement": "biomarker distributions of generated phase images (FIG. 17B)", "result": "appears to be effective at reversing or reducing the disease state"}]}]}
